{"sequences": {"note": "By UniProt entry, the sequences of proteins in these tests, tags left out. Residues count along the entry.", "UniProt Q61039": "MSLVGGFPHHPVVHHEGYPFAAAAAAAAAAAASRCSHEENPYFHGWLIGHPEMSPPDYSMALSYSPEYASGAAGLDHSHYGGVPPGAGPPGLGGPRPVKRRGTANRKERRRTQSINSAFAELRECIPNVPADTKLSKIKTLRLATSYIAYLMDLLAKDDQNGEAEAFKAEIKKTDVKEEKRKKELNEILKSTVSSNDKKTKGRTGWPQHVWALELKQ", "UniProt Q08369": "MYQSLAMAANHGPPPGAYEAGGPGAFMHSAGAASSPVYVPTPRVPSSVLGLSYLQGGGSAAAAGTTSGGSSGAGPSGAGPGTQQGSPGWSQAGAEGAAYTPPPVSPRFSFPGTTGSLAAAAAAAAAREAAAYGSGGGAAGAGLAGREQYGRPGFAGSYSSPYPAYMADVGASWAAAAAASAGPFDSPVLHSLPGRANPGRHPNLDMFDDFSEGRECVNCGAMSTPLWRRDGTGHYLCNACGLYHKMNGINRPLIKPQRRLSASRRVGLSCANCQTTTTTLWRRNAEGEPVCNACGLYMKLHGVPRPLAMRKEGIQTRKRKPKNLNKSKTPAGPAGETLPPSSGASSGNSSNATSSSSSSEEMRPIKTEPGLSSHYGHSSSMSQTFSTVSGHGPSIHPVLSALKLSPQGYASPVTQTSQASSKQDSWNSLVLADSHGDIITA", "UniProt Q6P9Z1, residues 2-483": "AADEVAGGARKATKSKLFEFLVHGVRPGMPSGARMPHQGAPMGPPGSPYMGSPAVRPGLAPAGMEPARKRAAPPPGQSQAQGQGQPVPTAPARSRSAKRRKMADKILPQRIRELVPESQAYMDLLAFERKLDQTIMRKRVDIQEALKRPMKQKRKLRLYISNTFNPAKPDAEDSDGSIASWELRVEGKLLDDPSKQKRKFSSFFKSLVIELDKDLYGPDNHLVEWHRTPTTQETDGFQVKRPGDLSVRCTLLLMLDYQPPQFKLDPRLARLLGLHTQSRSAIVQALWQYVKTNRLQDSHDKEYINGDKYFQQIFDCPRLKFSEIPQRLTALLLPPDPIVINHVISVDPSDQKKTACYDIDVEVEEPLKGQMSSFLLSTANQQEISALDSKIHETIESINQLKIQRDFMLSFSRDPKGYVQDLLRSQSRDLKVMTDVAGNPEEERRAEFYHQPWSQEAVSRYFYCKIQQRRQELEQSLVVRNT", "UniProt Q6STE5": "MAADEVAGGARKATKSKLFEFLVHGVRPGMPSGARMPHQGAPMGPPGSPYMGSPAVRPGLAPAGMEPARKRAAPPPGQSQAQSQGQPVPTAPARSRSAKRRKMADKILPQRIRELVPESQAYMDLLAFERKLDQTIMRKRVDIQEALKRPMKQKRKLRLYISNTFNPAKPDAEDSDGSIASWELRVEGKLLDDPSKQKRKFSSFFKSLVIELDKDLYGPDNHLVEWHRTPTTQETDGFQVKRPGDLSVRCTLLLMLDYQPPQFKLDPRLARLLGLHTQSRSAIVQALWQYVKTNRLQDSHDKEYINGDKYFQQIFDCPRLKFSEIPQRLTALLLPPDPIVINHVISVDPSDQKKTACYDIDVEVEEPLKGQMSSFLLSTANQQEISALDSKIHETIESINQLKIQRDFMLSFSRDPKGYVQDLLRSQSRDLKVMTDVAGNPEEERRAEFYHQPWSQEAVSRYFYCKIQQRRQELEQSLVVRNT"}, "source": "patent US20260159812A1", "binders": {"B1": {"name": "PHF7^FLAG-HA (protein, not shown: small tags and cut ends)", "chain": "MKTVKEKKECQRLRKSAKTRRVTQRKPSSGPVCWLCLREPGDPEKLGEFLQKDNISVHYFCLILSSKLPQRGQSNRGFHGFLPEDIKKEAARASRKICFVCKKKGAAINCQKDQCLRNFHLPCGQERGCLSQFFGEYKSFCDKHRPTQNIQHGHVGEESCILCCEDLSQQSVENIQSPCCSQAIYHRKCIQKYAHTSAKHFFKCPQCNNRKEFPQEMLRMGIHIPDRDAAWELEPGAFSDLYQRYQHCDAPICLYEQGRDSFEDEGRWCLILCATCGSHGTHRDCSSLRSNSKKWECEECSPAAATDYIPENSGDIPCCSSTFHPEEHFCRDNTLEENPGLSWTDWPEPSLLEKPESSRGRRSYSWRSKGVRITNSCKKSK"}, "B2": {"name": "PHF7^miniTurbo (protein)", "chain": "B1 chain"}, "B3": {"name": "PHF7^3xTy1 (protein, not shown: small tags and cut ends)", "chain": "B1 chain"}}, "key": {"Hand2^myc": {"molecular_target": "Hand2^myc (UniProt Q61039)", "experiment": "FLAG co-immunoprecipitation from transfected HEK293 cells, anti-myc immunoblot"}, "Gata4^myc": {"molecular_target": "Gata4^myc (UniProt Q08369)", "experiment": "FLAG co-immunoprecipitation from transfected HEK293 cells, anti-myc immunoblot"}, "Gata4": {"molecular_target": "Gata4 (UniProt Q08369)", "experiment": "miniTurbo proximity biotinylation (BioID) in AGHMT+PHF7^miniTurbo MEFs, streptavidin pulldown and proteomics; proximity, not direct binding"}, "Smarcd3/BAF60c (mouse)": {"molecular_target": "Smarcd3/BAF60c (mouse) (UniProt Q6P9Z1)", "experiment": "miniTurbo proximity biotinylation (BioID) in MEFs, streptavidin pulldown and proteomics; proximity, not direct binding"}, "SMARCD3^FLAG-HA [1]": {"molecular_target": "SMARCD3^FLAG-HA (UniProt Q6STE5)", "experiment": "FLAG co-immunoprecipitation from transfected HEK293 cells, anti-Ty1 immunoblot"}, "SMARCD3^FLAG-HA [2]": {"molecular_target": "SMARCD3^FLAG-HA (UniProt Q6STE5)", "experiment": "FLAG co-immunoprecipitation from transfected HEK293 cells (legend of FIG. 5, panel E)"}, "SMARCD3^FLAG-HA [3]": {"molecular_target": "SMARCD3^FLAG-HA (UniProt Q6STE5)", "experiment": "FLAG co-immunoprecipitation from transfected HEK293 cells (heading sentence of the results section)"}, "SMARCD3^FLAG-HA [4]": {"molecular_target": "SMARCD3^FLAG-HA (UniProt Q6STE5)", "experiment": "FLAG co-immunoprecipitation / proximity biotinylation (referred back to)"}}, "note": "No constants are given. Whether binding was seen depends on the method and setting. Binding seen in cells or lysates may run through a third protein. Some results given as binding are weak or reduced against the parent protein; the word gives no strength. For some assays here: Where a sequence is shown, tags or fusion partners need not be part of it."}
{"binder": "B1", "values": [{"measurement": "binding", "setting": "Hand2^myc", "value": "binds"}, {"measurement": "binding", "setting": "Gata4^myc", "value": "binds"}]}
{"binder": "B2", "values": [{"measurement": "binding", "setting": "Gata4", "value": "binds"}, {"measurement": "binding", "setting": "Smarcd3/BAF60c (mouse)", "value": "binds"}]}
{"binder": "B3", "values": [{"measurement": "binding", "setting": "SMARCD3^FLAG-HA [1]", "value": "binds"}, {"measurement": "binding", "setting": "SMARCD3^FLAG-HA [2]", "value": "binds"}, {"measurement": "binding", "setting": "SMARCD3^FLAG-HA [3]", "value": "binds"}, {"measurement": "binding", "setting": "SMARCD3^FLAG-HA [4]", "value": "binds"}]}
